The text below walks through data of publication PMC4653010.

Chains of the proteins cited; added tags and fusions are not shown.
UniProt Q13541: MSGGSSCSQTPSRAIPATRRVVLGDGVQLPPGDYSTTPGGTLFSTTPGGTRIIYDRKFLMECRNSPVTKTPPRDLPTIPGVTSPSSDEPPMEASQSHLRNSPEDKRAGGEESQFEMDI

Experiment [1] has as its target T1, GST-PC-1 (PC-1/PrLZ, prostate Leucine Zipper gene product, fused to glutathione S-transferase) (human) (UniProt P55327).
T1 sequence: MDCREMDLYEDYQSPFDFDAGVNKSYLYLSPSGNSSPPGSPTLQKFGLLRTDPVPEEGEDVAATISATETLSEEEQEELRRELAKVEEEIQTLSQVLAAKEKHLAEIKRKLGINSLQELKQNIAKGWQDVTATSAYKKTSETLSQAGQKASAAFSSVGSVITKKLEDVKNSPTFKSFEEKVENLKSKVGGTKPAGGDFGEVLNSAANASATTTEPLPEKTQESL
Kind of experiment: pull-down; GST-PC-1 immobilised on GST-Sepharose beads, incubated with purified His-4E-BP1 at 4°C for 3 h; beads washed 4 times with lysis buffer; blot with anti-His; both purified.

Experiment [2] addresses T2, Myc-PC-1 (PC-1/PrLZ) in LNCaP-pc-1 cells (human) (UniProt P55327).
T2 sequence: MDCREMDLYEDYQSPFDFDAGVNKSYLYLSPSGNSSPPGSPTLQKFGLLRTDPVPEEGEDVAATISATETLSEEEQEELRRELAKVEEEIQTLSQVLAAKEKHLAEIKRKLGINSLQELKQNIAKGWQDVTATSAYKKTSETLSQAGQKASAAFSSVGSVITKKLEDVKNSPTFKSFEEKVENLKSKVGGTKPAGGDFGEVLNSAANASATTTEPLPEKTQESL
Kind of experiment: co-IP; LNCaP-pc-1 lysate (50 mmol/l Tris pH 8.0, 50 mmol/l NaCl, 0.1% Nonidet P-40), anti-myc antibody at 4°C for 3 h, protein A/G-Sepharose for 6 h; blot with anti-4E-BP1.

Experiment [3] concerns the target GST-4E-BP1 (eukaryotic initiation factor 4E-binding protein 1 fused to glutathione S-transferase) (human) (UniProt Q13541). Kind of experiment: pull-down; GST-4E-BP1 immobilised on GST-Sepharose beads, incubated with lysate of 293T cells transfected with pCMV-2Btag-PC-1 at 4°C for 3 h; beads washed 4 times with lysis buffer; blot with anti-Flag; only the target purified.

These are yes or no findings as the source states them, for the method shown. For part of these data: Binding seen in cells or lysates may run through a third protein. Some binding calls cover weakened binding; strength is not graded here. Sequences can lack the tags named with a protein.

Regarding “His-4E-BP1 (eukaryotic initiation factor 4E-binding protein 1) (from UniProt Q13541 1-118)”, the binding entry in experiment [1] is given as “binds”.
With “endogenous 4E-BP1 (eukaryotic initiation factor 4E-binding protein 1) (from UniProt Q13541 1-118)”, the binding entry in experiment [2] was “binds”.

B1: Flag-PC-1 (PC-1/PrLZ) (protein, UniProt P55327 1-224)
chain: MDCREMDLYEDYQSPFDFDAGVNKSYLYLSPSGNSSPPGSPTLQKFGLLRTDPVPEEGEDVAATISATETLSEEEQEELRRELAKVEEEIQTLSQVLAAKEKHLAEIKRKLGINSLQELKQNIAKGWQDVTATSAYKKTSETLSQAGQKASAAFSSVGSVITKKLEDVKNSPTFKSFEEKVENLKSKVGGTKPAGGDFGEVLNSAANASATTTEPLPEKTQESL
As to B1, the binding result in experiment [3] was “binds”.
